From PubChem BioAssay AID743266 (National Center for Advancing Translational Sciences (NCATS), 2014)
In all, about 410,000 compounds went through this assay and about 310 (0.076%) were called active. This list was built around the results that the source calls inconclusive (neither active nor inactive); the mix of calls is not that of the screen. Calls follow the shape of the dose curve; as a rule, active = well fitted activation curve with a large enough effect; inconclusive = small, poorly fitted or top-dose-only effect, or another doubt; inactive = no such curve, though single readings can be large or run the other way. Potencies beside an inconclusive call are fits to weak or partial responses and may not hold up.

Sequences of proteins named here, by UniProt entry; tags and fusion partners are left off. A change or cut given only in a name is not applied to a line headed by its entry.
UniProt Q03431: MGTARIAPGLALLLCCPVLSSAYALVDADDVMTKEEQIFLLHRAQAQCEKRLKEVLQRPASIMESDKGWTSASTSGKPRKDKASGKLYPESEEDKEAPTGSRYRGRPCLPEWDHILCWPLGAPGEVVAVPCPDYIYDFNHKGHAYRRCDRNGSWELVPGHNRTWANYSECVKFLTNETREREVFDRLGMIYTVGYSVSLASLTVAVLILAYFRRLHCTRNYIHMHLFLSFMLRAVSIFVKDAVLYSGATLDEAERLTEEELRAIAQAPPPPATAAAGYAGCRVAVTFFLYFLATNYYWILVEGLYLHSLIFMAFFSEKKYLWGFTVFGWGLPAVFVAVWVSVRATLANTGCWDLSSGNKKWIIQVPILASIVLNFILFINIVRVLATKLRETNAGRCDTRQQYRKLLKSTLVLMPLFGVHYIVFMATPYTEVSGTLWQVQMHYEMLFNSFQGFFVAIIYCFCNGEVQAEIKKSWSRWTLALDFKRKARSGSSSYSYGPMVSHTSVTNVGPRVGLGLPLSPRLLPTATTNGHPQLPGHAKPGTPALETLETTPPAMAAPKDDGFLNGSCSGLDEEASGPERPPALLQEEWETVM

These compounds were tested against Parathyroid hormone/parathyroid hormone-related peptide receptor (Homo sapiens) (UniProt Q03431) (assay: qHTS for PTHR1 Agonists: Primary Screen). Settings: HEK293 GP2 PTHR1 cells, GloSensor cAMP luminescence, 1 h; activation: at 115 µM (top of the series) unless noted; series mostly up to 115 µM.
Summary of the method: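 HEK-293-derived GP2 cells expressing PTHR1 and a GloSensor cAMP reporter, 3,000/well, plated overnight, given luciferin plus IBMX (each 0.5 mM as added) for 1 h at 37 °C, then compound for 1 h at 37 °C. Luminescence was read after 15 min at room temperature.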
Also: nearly all actives have a fitted effect of over 55% in size.
Potency is read from the fitted curve at half-maximal effect.

activation, inconclusive:
Cc1ccc(C(=O)N/C(=C\c2cn(S(=O)(=O)N(C)C)c3ccccc23)C(=O)NCCCN2CCOCC2)cc1 56.3% [activator], COc1ccccc1NC(=O)c1ccccc1S(=O)(=O)c1ccccc1[N+](=O)[O-] 37.6% [activator], Cc1ccc2nc(NC(=O)C3CCN(S(=O)(=O)c4cccs4)CC3)sc2c1 -36.5% [activator] [at 57.5 µM], COc1ccc(C(=O)COC(=O)[C@H](C)Nc2ccc(C(F)(F)F)cc2[N+](=O)[O-])cc1 52.4% [activator] [at 57.5 µM], Nc1c(-c2nc(-c3cccs3)no2)nnn1-c1cccc(F)c1 34% [activator], COCCSc1ccccc1C(=O)NCc1cccnc1 59.8% [activator], COc1ccc(NC(=O)Cn2c(=O)n(CC(=O)NCc3ccco3)c(=O)c3ccccc32)cc1 -39.8% [activator] [at 57.5 µM], Cc1ccc(C)c(N2CCN(C(=O)c3cc(S(=O)(=O)N4CCCC4)c[nH]3)CC2)c1 -38.5% [activator], COc1ccccc1CCNC(=O)c1ccoc1C 150% [activator] [at 57.5 µM], CCOC(=O)CSc1nc2sc3c(c2c(=O)n1CC)CCCC3 24.7% [activator], CN(c1ccccc1)S(=O)(=O)c1ccc2c(c1)OCCO2 -92.7% [activator], S=C(Nc1ccc(Cl)cc1)NC1CC2CCCC(C1)N2C1CCCC1 (stereo unspecified) 61.2% [activator], CCOC(=O)C(CC)Sc1nnc2[nH]c(=O)cc(C)n12 (stereo unspecified) 52.5% [activator], CNc1nc(Oc2ccc(=O)[nH]n2)nc(N2CCOCC2)n1 32.3% [activator], O=C(c1[nH]ncc1[N+](=O)[O-])N1CCOCC1 76.2% [activator], O=C(NCc1cccc(F)c1F)C1CCC(=O)N(C2CC2)C1 (stereo unspecified) 31.8% [activator]

Potency, inactive:
CC(=O)c1cccc(NC(=O)c2cc(-c3ccc(C)cc3)on2)c1, COC(=O)[C@]1(Cc2ccccc2)N[C@H](CN(C)C(=O)Nc2ccc(OC)cc2)[C@@H]2C(=O)N(C)C(=O)[C@@H]21, COc1cccc(-c2cc(C(=O)NCc3ccco3)no2)c1, CN=c1scc(-c2ccccc2F)n1/N=C/c1ccc(O)c(O)c1O, CC1(C)S[C@@H]2[C@H](NC(=O)[C@H](N)c3ccccc3)C(=O)N2[C@H]1C(=O)OC1OC(=O)c2ccccc21 (stereo partly specified), COc1cc(OC)cc(C(=O)NCc2ccc3c(c2)CCN3C(=O)c2ccccc2)c1, Cc1cccc(-n2c3nc(=O)[nH]c(=O)c-3cc3cc([N+](=O)[O-])ccc32)c1, Cc1ccc(-c2nc3ccccc3[nH]2)cc1NC(=S)NC(=O)c1ccccc1Br, Cc1cc(C)nc(-n2nc(C)c(Br)c2Nc2ccc(Br)cc2)n1, COc1ccc(C(CNC(=O)CNC(=O)c2cccc(C)c2)N2CCCCC2)cc1 (stereo unspecified), CCOC(=O)C1=CC[C@@H](c2ccccc2C(F)(F)F)N(S(=O)(=O)c2ccc(C)cc2)[C@H]1c1ccc(C#N)cc1, COCCNC(=O)c1onc(CSc2ccncc2)c1C(=O)NCCOC, CC1(Oc2cccc(Cl)c2)CCN(Cc2ccc(OC(F)(F)F)cc2)C1 (stereo unspecified), Cc1ccc([N+](=O)[O-])cc1N(CC(=O)NC1CCCC1)S(C)(=O)=O, COc1cc(NC(=O)c2ccccc2)c(OC)cc1NC(=O)CN1CCOCC1, COc1ccc(-c2cc(C)no2)cc1S(=O)(=O)N1CC(C)Oc2ccccc21 (stereo unspecified)

Potency, inconclusive:
COC(=O)c1cccc(NC(=O)CSc2nc(O)c(-c3ccccc3)c(=O)[nH]2)c1 50.1 µM [activator, partial curve, poor fit], Cc1c(CCOC(=O)c2cc([N+](=O)[O-])cc([N+](=O)[O-])c2)sc[n+]1CCCCS(=O)(=O)[O-] 89.1 µM [activator, single point], CNc1cc(C(=O)Nc2cccc(OCc3ccccc3)c2)ncn1 0.767 µM [activator, full curve, poor fit], CCOc1ccc(OCC)c(NC(=O)C(NS(=O)(=O)c2ccc(Br)s2)c2ccccc2)c1 (stereo unspecified) 50.1 µM [activator, partial curve, poor fit], Cc1cc(C)nc(NC2=NC3CCCCC3N2)n1 (stereo unspecified) 35.5 µM [activator, single point], Nc1ccncc1N 50.1 µM [activator, partial curve, poor fit], CC(C)n1c(SCC(N)=O)nc2c1c(=O)n(C)c(=O)n2C 0.153 µM [activator, full curve, poor fit], O=C(COC(=O)c1cc(S(=O)(=O)N2CCOCC2)ccc1F)NCCc1ccc(F)cc1 17.8 µM [activator, partial curve], COc1ccc(CCNC(=O)CSc2nn3c(=O)c(C)nnc3s2)cc1OC 89.1 µM [activator, partial curve, poor fit], COc1cccc(-n2cc(C(=O)NCCc3cccc(C)c3)c3ccccc3c2=O)c1 25.1 µM [activator, partial curve], CC(=O)N1CCc2cc(Br)cc(S(=O)(=O)N3CCC(C(=O)O)CC3)c21 15.8 µM [activator, partial curve, poor fit], COC(=O)c1ccc(NC(=O)N2CCc3c([nH]c4ccccc34)C2c2ccc(C)cc2)cc1 (stereo unspecified) 44.7 µM [activator, partial curve, poor fit], Cc1cccc(Nc2ncnc3c2cnn3C)c1C 126 µM [activator, single point], CC[C@@H](C)[C@H](NC(=O)CNC(=O)Cc1c(C)c2c(cc(C)c3c(C)coc32)oc1=O)C(=O)O 35.5 µM [activator, full curve, poor fit], CC(=O)Nc1ccc(S(=O)(=O)NNC(=O)c2cccc3ccccc23)cc1 1 µM [activator, full curve, poor fit], CC(C)(C)c1ccc(OCCNC(=S)NC(=O)c2cccnc2)cc1 44.7 µM [activator, partial curve, poor fit], COc1ccc(NS(=O)(=O)c2ccc(SC)cc2)cc1 0.891 µM [activator, full curve, poor fit], O=C(NCCCN1CCCCCC1)C1CC(=O)N(C2CCCC2)C1 (stereo unspecified) 39.8 µM [activator, single point], COc1ccc2nc3oc(C(=O)NCc4cccs4)cc3cc2c1 44.7 µM [activator, single point], CC(NS(=O)(=O)c1ccccc1)C(N)=O (stereo unspecified) 39.8 µM [activator, single point], Cc1ccccc1-c1nc(NC(=O)CSc2ncnc3sc4c(c23)CCCC4)ns1 100 µM [activator, partial curve, poor fit], CCc1nnc(SCC(=O)NC2CC2)n1CC 50.1 µM [activator, partial curve, poor fit], CCn1c(SCC(=O)Nc2ccc(C)cc2)nc2sc3c(c2c1=O)CCN(C)C3 126 µM [activator, single point], COc1cc(NC(=O)Cn2cnc(S(=O)(=O)N3CCCCC3)c2)cc(OC)c1OC 89.1 µM [activator, partial curve, poor fit], COc1ccccc1C1(O)CC2CCC(C1)N2S(=O)(=O)c1ccc(C(C)=O)cc1 (stereo unspecified) 39.8 µM [activator, single point], CCCC(=O)Nc1ccc2c(c1)nc(CN1CCN(C(=O)OCC)CC1)n2C 112 µM [activator, single point], COCCNc1cc(C)c(C#N)c2nc3ccccc3n12 2.82 µM [activator, partial curve], Cc1ccc(S(=O)(=O)N2CCN(C(=O)COC(=O)COc3ccc(Br)cc3)CC2)c(C)c1 44.7 µM [activator, single point], Cc1ccc(S(=O)(=O)CCc2nc3ccccc3n2CCC#N)cc1 31.6 µM [activator, partial curve, poor fit], CCOc1ccc(-c2cc(CCCC(=O)NCCc3ccc(OCC)c(OCC)c3)no2)cc1 100 µM [activator, single point], O=C1CC(c2ccccc2)C(=O)N1c1cccc(O)c1 (stereo unspecified) 70.8 µM [activator, single point], O=C(CSc1nccn1Cc1ccccc1)Nc1nccs1 39.8 µM [activator, single point], Cc1ccc(NC(=O)Nn2cnnc2)c(C)c1 39.8 µM [activator, partial curve, poor fit], C#CCOCCOCCOCCNc1nc(N2CCN(C(=O)CCCCCCCCCCNC(=O)Cn3cc(C[C@@H](C)O)nn3)CC2)nc(N2CCN(C(=O)CCCCCCCCCCNC(=O)[C@H](CCCN=C(N)N)n3cc(C[C@@H](C)CC)nn3)CC2)n1 126 µM [activator, single point]
